This passage reports survivor count and T/C results from PubChem BioAssay AID304 (DTP/NCI, 2004).

The list is a part of this screen's results and no random one: it is rich in T/C values a quarter to a half above the control, in often repeated tests (any T/C) and in doses without a T/C. Further doses and runs are listed elsewhere. T/C gives the treated animals as a percentage of the vehicle group. Some entries give survivors of the animals treated and no T/C: the source holds a T/C of zero for them, seemingly a mark for toxic or unscored doses. Some survivor counts are full or nearly so, which does not show that the dose was tolerated: the source hardly ever lists a survival T/C far under the control, and the zero likely stands for such cases as well. Survivors were counted at the toxicity check, usually on the fifth day, unless a day is given; later deaths do not show. Schedule codes are those of the source, taken here to give the interval after Q, in days (D) or hours (H), and the number of doses after X. Some entries hold several experiments; the results are listed from low to high. Some molecules as drawn cover several salts, stereoisomers or complexes of the source; a dose is that of the sample tested. For survival time, this PubChem deposit counts one and a half times the control or more as active, and values a quarter to a half above the control carry no call in these data; other NCI protocols may use other cut-offs. Additions like (4×) give the number of equal values in this list. Some T/C values carry the count of animals alive at the toxicity check (mostly the fifth day); where none is given, no animal had died by that day.

In the test the test system is Lymphosarcoma Mecca ip in C3AKF1 mice, survival T/C%. Kind of test: NCI In Vivo Anticancer Drug Screen. Data for tumor model Lymphosarcoma Mecca (intraperitoneal) in C3AKF1 (CHKRF1) mice. The conditions noted are these: T/C endpoint: survival time, mean or median, higher T/C = longer survival. The method, then:
The antitumor activity of compounds was measured in mice bearing transplantable tumors. Survival or tumor size were measured and the results are expressed as the measurement made in the treated group (T) divided by the measurement made in the vehicle treated control group (C). The tumor model used in this assay is Lymphosarcoma Mecca (intraperitoneal) in C3AKF1 (CHKRF1) mice

[1] abbreviates: dose: 6.0 mg/kg/injection, schedule: Q01DX010 (ip), vehicle: saline.
Where [2] appears, read: dose: 8.0 mg/kg/injection, schedule: Q01DX010 (ip), vehicle: saline.
[3] abbreviates: dose: 12.0 mg/kg/injection, schedule: Q01DX010 (ip), vehicle: saline.
[4] abbreviates: dose: 50.0 mg/kg/injection, schedule: Q01DX010 (ip), vehicle: saline.
[5] abbreviates: dose: 100.0 mg/kg/injection, schedule: Q01DX010 (ip), vehicle: saline.
Setting [6] is: dose: 200.0 mg/kg/injection, schedule: Q01DX010 (ip), vehicle: saline.
Setting [7] is: dose: 2.5 mg/kg/injection, schedule: Q01DX010 (ip), vehicle: saline.
Setting [8] is: dose: 5.0 mg/kg/injection, schedule: Q01DX010 (ip), vehicle: saline.
Setting [9] is: dose: 20.0 mg/kg/injection, schedule: Q01DX010 (ip), vehicle: saline.
[10] abbreviates: dose: 2.0 mg/kg/injection, schedule: Q01DX010 (ip), vehicle: saline.
The mark [11] stands for this setting: dose: 4.0 mg/kg/injection, schedule: Q01DX010 (ip), vehicle: saline.
Where [12] appears, read: dose: 40.0 mg/kg/injection, schedule: Q01DX010 (ip), vehicle: saline.
Setting [13] is: dose: 150.0 mg/kg/injection, schedule: Q01DX010 (ip), vehicle: saline.
Setting [14] is: dose: 300.0 mg/kg/injection, schedule: Q01DX010 (ip), vehicle: saline.
The mark [15] stands for this setting: dose: 32.0 mg/kg/injection, schedule: Q01DX010 (ip), vehicle: saline.
The mark [16] stands for this setting: dose: 64.0 mg/kg/injection, schedule: Q01DX010 (ip), vehicle: saline.
Setting [17] is: dose: 10.0 mg/kg/injection, schedule: Q01DX010 (ip), vehicle: saline.
Where [18] appears, read: dose: 60.0 mg/kg/injection, schedule: Q01DX010 (ip), vehicle: saline.
[19] abbreviates: dose: 0.13 mg/kg/injection, schedule: Q01DX010 (ip), vehicle: saline.
Setting [20] is: dose: 1.25 mg/kg/injection, schedule: Q01DX010 (ip), vehicle: saline.

As to `COC(=O)[C@@H]1c2cc3c(c(O)c2[C@@H](OC2OC(C)C(OC)C(C)(OC)C2OC)C[C@]1(C)O)C(=O)c1c(O)cc2c(c1C3=O)O[C@H]1O[C@]2(C)[C@H](O)[C@@H](N(C)C)[C@@H]1O` (stereo not given in full), the survivor count (dose: 1000.0 micrograms/kg/injection, schedule: Q01DX010 (ip), vehicle: saline) was 5 of 6 and 6 of 6.

For the compound `O=C(Nc1ccc(C2=NCCN2)cc1)c1ccc(C(=O)Nc2ccc(C3=NCCN3)cc2)c([N+](=O)[O-])c1`, the T/C was 127 % of control under setting [1], 127 % of control under setting [2] and 144 % of control [8 of 10 alive] under setting [3]. Further, for the setting “dose: 18.0 mg/kg/injection, schedule: Q01DX010 (ip), vehicle: saline”, the survivor count was 5 of 10 and 8 of 10.

On to `CS(=O)(=O)OCCC(=O)N1CCN(C(=O)CCOS(C)(=O)=O)CC1`, for which the T/C under setting [4] is 125 and 130 % of control; the T/C under setting [5] is 140 % of control. Besides, under setting [6], the survivor count is on record as 6 of 6.

For the compound `NC(Cc1ccc(N(CCCl)CCCl)cc1)C(=O)O` (stereo not given), the T/C under setting [7] is 135 and 145 % of control; the T/C under setting [8] is 130 % of control; the T/C under setting [2] is 125 % of control. Further, the survivor count under setting [9] is recorded as 6 of 6.

Turning to `COc1cc(-c2ccc(Nc3ccccc3C(=O)O)c(OC)c2)ccc1Nc1ccccc1C(=O)O`, the T/C was 133 and 140 % of control under setting [4]; 138 and 140 % of control under setting [5].

In the case of `O=C(Nc1ccc(NC2=NCCN2)cc1)c1ccc(C(=O)Nc2ccc(NC3=NCCN3)cc2)cc1`, the T/C was 130 and 150 % of control under setting [10]; 96, 110, 116, 140 % of control under setting [11]; 103, 140, 155 % of control under setting [2]; 89, 104, 130, 140 % of control (dose: 16.0 mg/kg/injection, schedule: Q01DX010 (ip), vehicle: saline). Moreover, the survivor count is 6 of 6 under setting [10] and 6 of 6 under setting [2].

On to `CCN(CC)CCCC(C)Nc1c2ccc(Cl)cc2nc2ccc(OC)cc12` (stereo not given), for which, under setting [6], the survivor count is given as 0 of 6.

With `C[C@@H]1C[C@@H]([C@H](O)CC2CC(=O)NC(=O)C2)C(=O)[C@@H](C)C1`, the survivor count is 6 of 6 under setting [9]; 5 of 6 and 6 of 6 under setting [12].

Regarding `Nc1ncnc2[nH]ncc12`, the survivor count is on record as 6 of 6 (dose: 1.5 mg/kg/injection, schedule: Q01DX010 (ip), vehicle: saline); 6 of 6 under setting [1]; 6 of 6 under setting [3].

With `C[C@H](N)C(=O)N[C@@H]1[C@H]2C(=C(O)C[C@@H](O)[C@@H]2O)C(=O)O[C@@H]1C`, the T/C under setting [13] is 144 % of control; the T/C under setting [14] was 135 % of control; the T/C (dose: 1200.0 mg/kg/injection, schedule: Q01DX010 (ip), vehicle: saline) is 140 % of control.

In the case of `O=c1[nH]c(=O)n(C2CC(O)C(CO)O2)cc1F` (stereo not given), the T/C under setting [12] is 131 and 145 % of control.

On to `CO[C@@H]1[C@@H](OC2OC(C)C(OC3CC(C)(O)C(OC(=O)CC(C)C)C(C)O3)C(N(C)C)C2O)[C@@H](CC=O)C[C@@H](C)C(=O)/C=C/C2O[C@H]2C[C@@H](C)OC(=O)C[C@H]1OC(C)=O` (stereo not given in full), for which the survivor count is 6 of 6 under setting [13] and 5 of 6 under setting [14].

With `CCCSc1ncnc2nc[nH]c12`, the survivor count (dose: 250.0 mg/kg/injection, schedule: Q01DX010 (ip), vehicle: saline) is 5 of 6.

As for `CS(=O)(=O)OCCCl`, the survivor count under setting [13] is reported as 0 of 6.

As to `c1ccc(CNc2ncnc3[nH]ncc23)cc1`, the T/C under setting [2] is 125 % of control. The survivor count runs as follows: under setting [15], 6 of 6; under setting [16], 6 of 6.

Regarding `S=P(N1CCOCC1)(N1CC1)N1CC1`, the survivor count reads like this: under setting [7], 6 of 6; under setting [17], 6 of 6; under setting [9], 4 of 6 and 6 of 6.

Turning to `O=NN(CCCl)C(=O)NCCCl`, the survivor count under setting [4] is on record as 6 of 6.

`O=c1cnn(C2OC(CO)C(O)C2O)c(=O)[nH]1` (stereo not given): the survivor count under setting [6] is listed as 6 of 6; the survivor count (dose: 400.0 mg/kg/injection, schedule: Q01DX010 (ip), vehicle: saline) is 6 of 6; the survivor count (dose: 800.0 mg/kg/injection, schedule: Q01DX010 (ip), vehicle: saline) was 6 of 6; the survivor count (dose: 1600.0 mg/kg/injection, schedule: Q01DX010 (ip), vehicle: saline) was 6 of 6.

Consider `O=c1[nH]cc(F)c(=O)[nH]1`, for which the T/C under setting [17] was 130 % of control.

For the compound `COc1cc(-c2ccc(Nc3ccccc3C(=O)O)c(OC)c2)ccc1N`, the T/C under setting [12] was 125 % of control and the T/C (dose: 80.0 mg/kg/injection, schedule: Q01DX010 (ip), vehicle: saline) is 130 % of control.

Turning to `Clc1ncnc2nc[nH]c12`, the T/C by setting is: (dose: 7.5 mg/kg/injection, schedule: Q01DX010 (ip), vehicle: saline) 136 % of control; under setting [18], 127 % of control.

Take `Nc1nc(SCc2ccccc2)c2[nH]cnc2n1`: the T/C under setting [11] is 125 % of control. Moreover, the survivor count under setting [15] is given as 6 of 6.

As for `CC/C(=C(/CC)c1ccc(O)cc1)c1ccc(O)cc1`, the survivor count (dose: 25.0 mg/kg/injection, schedule: Q01DX010 (sc), vehicle: steroid suspending solution) is recorded as 6 of 6.

In the case of `C1CN1c1nc(N2CC2)nc(N2CC2)n1`, the T/C is 144 % of control under setting [19]; 125 % of control (dose: 0.25 mg/kg/injection, schedule: Q01DX010 (ip), vehicle: saline); 145 % of control (dose: 0.5 mg/kg/injection, schedule: Q01DX010 (ip), vehicle: saline). For the same compound, the survivor count (dose: 1.0 mg/kg/injection, schedule: Q01DX010 (ip), vehicle: saline) is 6 of 6.

Regarding `CC(=O)NC1=C(N2CC2)C(=O)C(NC(C)=O)=C(N2CC2)C1=O`, the T/C under setting [19] is 127 % of control.

As for `CC[n+]1c(-c2ccccc2)c2cc(N)ccc2c2ccc(N)cc21`, the T/C under setting [8] was 125 % of control.

`Oc1cc(CN(CCCl)CCCl)c(O)cc1CN(CCCl)CCCl`: the T/C was 130 % of control under setting [20], 140 % of control under setting [7] and 130 % of control under setting [8].

In the case of `CN(C)[C@@H]1C(=O)C(C(N)=O)=C(O)[C@@]2(O)C(=O)C3=C(O)c4c(O)cccc4C[C@H]3C[C@@H]12`, the survivor count under setting [18] is listed as 6 of 6.

Consider `N#[N+]c1cnc([O-])[nH]c1=O`, for which the T/C runs as follows: under setting [20], 128 % of control; under setting [7], 128 % of control; under setting [17], 133 % of control.

In the case of `O=C(Nc1ccc(C2=NCCN2)cc1)c1cccc(C(=O)Nc2ccc(C3=NCCN3)cc2)c1`, the T/C under setting [2] is 140 % of control; the T/C under setting [15] is 134 and 145 % of control; the T/C under setting [16] is 131 % of control.

Regarding `O=C(Nc1ccc(C2=NCCCN2)cc1)c1ccc(C(=O)Nc2ccc(C3=NCCCN3)cc2)cc1`, the T/C runs as follows: under setting [11], 127 % of control (2×); under setting [2], 144 % of control.

Regarding `Nc1nc2n[nH]nc2c(=O)[nH]1`, the survivor count by setting is: (dose: 25.0 mg/kg/injection, schedule: Q01DX010 (ip), vehicle: alkali diluted with saline) 6 of 6; (dose: 100.0 mg/kg/injection, schedule: Q01DX010 (ip), vehicle: alkali diluted with saline) 6 of 6; (dose: 200.0 mg/kg/injection, schedule: Q01DX010 (ip), vehicle: alkali diluted with saline) 5 of 6 and 6 of 6.

In the case of `OC(CBr)C(O)C(O)C(O)CBr` (stereo not given), the T/C under setting [6] is 140 % of control.
